{
  "source": "patent US20240009263A1",
  "about": "“COMPOUNDS FOR TREATING ENVELOPED VIRUS INFECTIONS” (priority 2020, published 2024)",
  "system": "SARS-CoV-2 strain BavPat1",
  "conditions": "Vero-E6 cells",
  "note": "For at least one compound, name, drawing or mass did not settle the structure.",
  "data": [
    {"molecule": "CCC(CC)COC(=O)[C@H](C)N[P@](=O)(OC[C@H]1O[C@@](C#N)(c2ccc3c(N)ncnn23)[C@H](O)[C@@H]1O)Oc1ccccc1", "note": "[Rem, Remdesivir, reference compound]", "values": [
      {"measurement": "potency (EC50) compared with the compounds according to the invention, in words", "value": "less potent"}
    ]}
  ]
}
